The results in this text go back to publication PMC4637209.

Protein sequences, listed by entry. Tags and fused reporters are not part of them.
UniProt P56524: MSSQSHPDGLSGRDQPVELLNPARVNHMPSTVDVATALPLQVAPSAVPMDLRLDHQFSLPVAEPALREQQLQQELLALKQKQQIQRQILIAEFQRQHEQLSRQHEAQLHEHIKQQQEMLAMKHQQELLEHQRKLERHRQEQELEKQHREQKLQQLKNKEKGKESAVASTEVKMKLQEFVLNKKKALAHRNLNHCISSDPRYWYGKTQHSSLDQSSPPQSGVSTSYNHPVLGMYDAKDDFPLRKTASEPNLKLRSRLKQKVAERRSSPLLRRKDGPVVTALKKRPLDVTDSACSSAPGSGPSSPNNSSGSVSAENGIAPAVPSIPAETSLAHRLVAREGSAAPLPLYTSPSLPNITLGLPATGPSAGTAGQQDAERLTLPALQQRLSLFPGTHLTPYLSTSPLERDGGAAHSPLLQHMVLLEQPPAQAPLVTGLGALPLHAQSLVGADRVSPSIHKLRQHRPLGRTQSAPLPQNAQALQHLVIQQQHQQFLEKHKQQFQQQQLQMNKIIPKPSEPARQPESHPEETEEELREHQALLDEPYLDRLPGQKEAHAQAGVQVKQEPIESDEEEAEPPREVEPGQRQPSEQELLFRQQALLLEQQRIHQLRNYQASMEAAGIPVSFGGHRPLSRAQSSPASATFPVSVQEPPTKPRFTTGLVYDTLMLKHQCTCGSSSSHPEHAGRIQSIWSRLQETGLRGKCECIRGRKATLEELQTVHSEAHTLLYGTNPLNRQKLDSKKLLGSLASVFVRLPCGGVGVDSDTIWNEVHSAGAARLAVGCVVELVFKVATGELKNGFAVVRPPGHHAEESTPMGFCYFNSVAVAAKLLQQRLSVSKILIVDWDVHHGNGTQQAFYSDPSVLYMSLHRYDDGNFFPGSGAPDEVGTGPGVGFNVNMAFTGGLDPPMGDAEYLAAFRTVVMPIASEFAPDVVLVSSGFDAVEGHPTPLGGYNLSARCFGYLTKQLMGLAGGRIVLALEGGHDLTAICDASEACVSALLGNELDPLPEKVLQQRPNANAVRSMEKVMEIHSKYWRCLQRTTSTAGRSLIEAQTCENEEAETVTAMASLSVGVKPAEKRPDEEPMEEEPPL
UniProt Q6NZM9: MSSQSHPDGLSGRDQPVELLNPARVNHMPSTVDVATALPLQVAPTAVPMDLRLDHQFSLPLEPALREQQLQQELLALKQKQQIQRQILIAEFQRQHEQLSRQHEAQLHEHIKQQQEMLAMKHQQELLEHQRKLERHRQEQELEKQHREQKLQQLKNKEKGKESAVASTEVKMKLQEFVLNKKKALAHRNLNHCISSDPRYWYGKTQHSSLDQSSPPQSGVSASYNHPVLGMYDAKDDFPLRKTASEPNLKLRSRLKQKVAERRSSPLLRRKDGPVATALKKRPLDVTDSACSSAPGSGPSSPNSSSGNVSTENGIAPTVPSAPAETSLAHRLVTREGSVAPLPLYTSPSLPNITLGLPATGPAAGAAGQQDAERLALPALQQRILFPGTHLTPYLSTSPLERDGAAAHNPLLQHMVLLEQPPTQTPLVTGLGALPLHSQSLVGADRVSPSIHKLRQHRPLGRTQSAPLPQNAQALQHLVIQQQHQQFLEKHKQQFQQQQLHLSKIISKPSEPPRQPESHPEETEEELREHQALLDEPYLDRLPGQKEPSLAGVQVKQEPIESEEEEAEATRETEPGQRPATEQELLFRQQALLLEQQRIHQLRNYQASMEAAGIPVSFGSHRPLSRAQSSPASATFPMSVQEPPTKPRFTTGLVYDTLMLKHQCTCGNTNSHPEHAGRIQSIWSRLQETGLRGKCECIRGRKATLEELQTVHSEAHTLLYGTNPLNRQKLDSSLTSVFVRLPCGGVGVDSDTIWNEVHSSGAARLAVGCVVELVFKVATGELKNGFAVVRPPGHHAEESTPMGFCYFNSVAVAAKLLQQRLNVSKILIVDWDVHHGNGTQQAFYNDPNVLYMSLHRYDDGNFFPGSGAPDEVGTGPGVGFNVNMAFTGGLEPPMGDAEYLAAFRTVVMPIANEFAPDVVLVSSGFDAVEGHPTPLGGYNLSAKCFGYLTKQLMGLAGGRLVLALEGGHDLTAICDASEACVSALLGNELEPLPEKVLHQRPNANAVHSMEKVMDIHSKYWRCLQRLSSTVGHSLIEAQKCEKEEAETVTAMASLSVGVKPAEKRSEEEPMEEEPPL

The target of experiment [1] is T1, microtubule-associated protein 1S (MAP1S), endogenous in mouse brain tissue and N2a cells (mouse (endogenous in brain tissue and N2a)) (UniProt Q8C052).
T1 sequence: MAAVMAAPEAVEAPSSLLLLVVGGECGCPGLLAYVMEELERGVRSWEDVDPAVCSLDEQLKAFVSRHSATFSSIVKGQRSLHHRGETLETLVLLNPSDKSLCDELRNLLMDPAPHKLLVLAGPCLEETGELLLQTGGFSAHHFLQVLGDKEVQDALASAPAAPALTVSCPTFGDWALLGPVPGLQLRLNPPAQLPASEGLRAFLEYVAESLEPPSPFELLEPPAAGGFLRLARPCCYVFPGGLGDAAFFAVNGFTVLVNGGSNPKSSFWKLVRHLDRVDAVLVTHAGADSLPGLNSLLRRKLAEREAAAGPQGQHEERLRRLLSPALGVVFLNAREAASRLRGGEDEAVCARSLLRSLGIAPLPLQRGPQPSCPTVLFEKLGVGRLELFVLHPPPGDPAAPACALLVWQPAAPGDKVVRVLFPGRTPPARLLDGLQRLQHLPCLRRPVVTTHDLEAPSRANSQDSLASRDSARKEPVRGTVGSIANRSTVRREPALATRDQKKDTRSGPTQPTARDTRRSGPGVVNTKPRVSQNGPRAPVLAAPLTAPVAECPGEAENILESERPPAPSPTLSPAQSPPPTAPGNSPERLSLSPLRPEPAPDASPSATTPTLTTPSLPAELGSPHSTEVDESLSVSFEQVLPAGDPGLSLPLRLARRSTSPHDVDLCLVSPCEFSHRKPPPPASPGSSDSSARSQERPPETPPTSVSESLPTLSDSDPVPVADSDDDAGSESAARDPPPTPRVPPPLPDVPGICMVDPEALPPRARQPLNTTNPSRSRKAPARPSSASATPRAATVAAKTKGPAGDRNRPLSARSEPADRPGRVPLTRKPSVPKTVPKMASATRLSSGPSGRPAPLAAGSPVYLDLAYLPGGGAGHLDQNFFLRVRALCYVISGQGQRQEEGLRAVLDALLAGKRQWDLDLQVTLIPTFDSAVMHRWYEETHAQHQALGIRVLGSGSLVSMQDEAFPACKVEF
The experiment is described as follows: co-IP; lysates from brain tissues of wild-type and MAP1S-/- mice or from N2a cells, endogenous proteins, precipitated with antibody against HDAC4 or MAP1S or IgG control.

For experiment [2], the target named is histone deacetylase 4 (HDAC4), endogenous in HeLa cells (human (endogenous in HeLa)) (UniProt P56524). The experiment is described as follows: co-IP; competition: equal amounts of lysates from HeLa cells expressing control HA, HBD or HA-HBDΔ, precipitated with HDAC4-specific antibody; endogenous MAP1S blotted and quantified.

No constants are given. Whether binding was seen depends on the method and setting. In cells and extracts the contact can be indirect. Some results given as binding are weak or reduced against the parent protein; the word gives no strength. For some assays here: Tags and fused reporters may be left off the sequences shown.

In the case of “histone deacetylase 4 (HDAC4), endogenous in mouse brain tissue and N2a cells (from UniProt Q6NZM9 1-1076) (enzyme)”, the binding result in experiment [1] is listed as “binds”.

B1: HA-tagged MAP1S R653-Q855 fragment, HDAC4-binding domain (HA-HBD) (domain or fragment, UniProt Q66K74 653-855)
chain: RLSLSPLRGGEAGPDASPTVTTPTVTTPSLPAEVGSPHSTEVDESLSVSFEQVLPPSAPTSEAGLSLPLRGPRARRSASPHDVDLCLVSPCEFEHRKAVPMAPAPASPGSSNDSSARSQERAGGLGAEETPPTSVSESLPTLSDSDPVPLAPGAADSDEDTEGFGVPRHDPLPDPLKVPPPLPDPSSICMVDPEMLPPKTARQ
As for B1, in experiment [2], the binding result is on record as “binds”.
